# Cleaved PARP after 72 h of treatment

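Human melanoma cells were exposed to two drugs together for 72 h in 1,536-well plates and read by automated microscopy after fixing and staining. Each value is the cleaved-PARP-positive fraction of nuclei relative to DMSO-treated wells, in %, so that 100 equals the control and higher values mean more apoptosis. Concentrations were fixed for each drug; these are the higher of two levels. These are primary screening values without error estimates. The marker varies much from line to line, for technical or biological reasons.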
Only some of the drugs and lines screened are listed, without regard to their results.

First drug in all entries: RKI-983, 2 µM, C[C@@H](N)c1ccc(C(=O)Nc2ccnc3[nH]ccc23)cc1

Drug key:
ABT-263: CC1(C)CCC(c2ccc(Cl)cc2)=C(CN2CCN(c3ccc(C(=O)NS(=O)(=O)c4ccc(N[C@H](CCN5CCOCC5)CSc5ccccc5)c(S(=O)(=O)C(F)(F)F)c4)cc3)CC2)C1 at 2 µM
GSK0660: COC(=O)c1sccc1S(=O)(=O)Nc1ccc(Nc2ccccc2)cc1OC at 5 µM
SU6656: CN(C)S(=O)(=O)c1ccc2c(c1)/C(=C/c1cc3c([nH]1)CCCC3)C(=O)N2 at 2 µM
SNS-032: CC(C)(C)c1cnc(CSc2cnc(NC(=O)C3CCNCC3)s2)o1 at 0.05 µM
GSK650394: O=C(O)c1ccc(-c2c[nH]c3ncc(-c4ccccc4)cc23)cc1C1CCCC1 at 0.8 µM
dovitinib: CN1CCN(c2ccc3nc(-c4c(N)c5c(F)cccc5[nH]c4=O)[nH]c3c2)CC1 at 0.5 µM
BMS-536924: Cc1cc(N2CCOCC2)cc2[nH]c(-c3c(NC[C@@H](O)c4cccc(Cl)c4)cc[nH]c3=O)nc12 at 1 µM
erlotinib: C#Cc1cccc(Nc2ncnc3cc(OCCOC)c(OCCOC)cc23)c1 at 4 µM
perifosine: CCCCCCCCCCCCCCCCCCOP(=O)([O-])OC1CC[N+](C)(C)CC1 at 2 µM
dorsomorphin: c1cc(-c2cnn3cc(-c4ccc(OCCN5CCCCC5)cc4)cnc23)ccn1 at 2 µM
gemcitabine: Nc1ccn([C@@H]2O[C@H](CO)[C@@H](O)C2(F)F)c(=O)n1 at 0.002 µM
veliparib: C[C@]1(c2nc3c(C(N)=O)cccc3[nH]2)CCCN1 at 7 µM
STA-4783: CN(NC(=O)CC(=O)NN(C)C(=S)c1ccccc1)C(=S)c1ccccc1 at 0.03 µM
vorinostat: O=C(CCCCCCC(=O)Nc1ccccc1)NO at 0.4 µM
Src-I1: COc1cc2ncnc(Nc3ccc(Oc4ccccc4)cc3)c2cc1OC at 10 µM
PF-04217903: OCCn1cc(-c2cnc3nnn(Cc4ccc5ncccc5c4)c3n2)cn1 at 5 µM
darinaparsin: C[As](C)SC[C@H](NC(=O)CC[C@H](N)C(=O)O)C(=O)NCC(=O)O at 2 µM
CX-4945: O=C(O)c1ccc2c(c1)nc(Nc1cccc(Cl)c1)c1ccncc12 at 2 µM
CP-690550: C[C@@H]1CCN(C(=O)CC#N)C[C@@H]1N(C)c1ncnc2[nH]ccc12 at 5 µM
fludarabine: Nc1nc(F)nc2c1ncn2[C@@H]1O[C@H](CO)[C@@H](O)[C@@H]1O at 1 µM
T0901317: O=S(=O)(c1ccccc1)N(CC(F)(F)F)c1ccc(C(O)(C(F)(F)F)C(F)(F)F)cc1 at 7 µM
GW0742: Cc1cc(SCc2sc(-c3ccc(C(F)(F)F)c(F)c3)nc2C)ccc1OCC(=O)O at 10 µM

Second drug,COLO 800
vorinostat,62.2
veliparib,103
ABT-263,139
CP-690550,133
perifosine,152
dorsomorphin,109
BMS-536924,603
CX-4945,82.4
Src-I1,106
erlotinib,75.2
GW0742,135
gemcitabine,218
dovitinib,213
T0901317,107
SU6656,147
PF-04217903,102
darinaparsin,196
STA-4783,98.5
GSK650394,220
fludarabine,141
SNS-032,259
GSK0660,276

2 of the entries, repeated:

| Second drug | COLO 800 |
|---|---|
| BMS-536924 | 603 |
| darinaparsin | 196 |

From a melanoma drug combination screen (doi:10.1371/journal.pone.0140310); values rounded.